Reference: the supplement of paper PMC10849652
This is one part of the list.

Protein sequences, listed by entry. Tags and fused reporters are not part of them. Lines headed by an entry give the natural chain unless they say otherwise; changes in a name come on top.
UniProt Q9Y3B2, whole entry, looked up: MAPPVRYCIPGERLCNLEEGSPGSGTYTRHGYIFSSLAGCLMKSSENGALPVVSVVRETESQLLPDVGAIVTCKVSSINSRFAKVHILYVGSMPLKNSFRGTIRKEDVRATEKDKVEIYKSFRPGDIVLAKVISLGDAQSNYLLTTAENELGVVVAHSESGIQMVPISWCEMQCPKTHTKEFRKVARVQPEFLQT
UniProt Q01469, whole entry, looked up: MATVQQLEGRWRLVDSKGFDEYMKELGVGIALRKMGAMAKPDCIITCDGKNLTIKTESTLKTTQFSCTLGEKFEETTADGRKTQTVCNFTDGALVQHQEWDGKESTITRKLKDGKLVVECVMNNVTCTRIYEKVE
UniProt P07814: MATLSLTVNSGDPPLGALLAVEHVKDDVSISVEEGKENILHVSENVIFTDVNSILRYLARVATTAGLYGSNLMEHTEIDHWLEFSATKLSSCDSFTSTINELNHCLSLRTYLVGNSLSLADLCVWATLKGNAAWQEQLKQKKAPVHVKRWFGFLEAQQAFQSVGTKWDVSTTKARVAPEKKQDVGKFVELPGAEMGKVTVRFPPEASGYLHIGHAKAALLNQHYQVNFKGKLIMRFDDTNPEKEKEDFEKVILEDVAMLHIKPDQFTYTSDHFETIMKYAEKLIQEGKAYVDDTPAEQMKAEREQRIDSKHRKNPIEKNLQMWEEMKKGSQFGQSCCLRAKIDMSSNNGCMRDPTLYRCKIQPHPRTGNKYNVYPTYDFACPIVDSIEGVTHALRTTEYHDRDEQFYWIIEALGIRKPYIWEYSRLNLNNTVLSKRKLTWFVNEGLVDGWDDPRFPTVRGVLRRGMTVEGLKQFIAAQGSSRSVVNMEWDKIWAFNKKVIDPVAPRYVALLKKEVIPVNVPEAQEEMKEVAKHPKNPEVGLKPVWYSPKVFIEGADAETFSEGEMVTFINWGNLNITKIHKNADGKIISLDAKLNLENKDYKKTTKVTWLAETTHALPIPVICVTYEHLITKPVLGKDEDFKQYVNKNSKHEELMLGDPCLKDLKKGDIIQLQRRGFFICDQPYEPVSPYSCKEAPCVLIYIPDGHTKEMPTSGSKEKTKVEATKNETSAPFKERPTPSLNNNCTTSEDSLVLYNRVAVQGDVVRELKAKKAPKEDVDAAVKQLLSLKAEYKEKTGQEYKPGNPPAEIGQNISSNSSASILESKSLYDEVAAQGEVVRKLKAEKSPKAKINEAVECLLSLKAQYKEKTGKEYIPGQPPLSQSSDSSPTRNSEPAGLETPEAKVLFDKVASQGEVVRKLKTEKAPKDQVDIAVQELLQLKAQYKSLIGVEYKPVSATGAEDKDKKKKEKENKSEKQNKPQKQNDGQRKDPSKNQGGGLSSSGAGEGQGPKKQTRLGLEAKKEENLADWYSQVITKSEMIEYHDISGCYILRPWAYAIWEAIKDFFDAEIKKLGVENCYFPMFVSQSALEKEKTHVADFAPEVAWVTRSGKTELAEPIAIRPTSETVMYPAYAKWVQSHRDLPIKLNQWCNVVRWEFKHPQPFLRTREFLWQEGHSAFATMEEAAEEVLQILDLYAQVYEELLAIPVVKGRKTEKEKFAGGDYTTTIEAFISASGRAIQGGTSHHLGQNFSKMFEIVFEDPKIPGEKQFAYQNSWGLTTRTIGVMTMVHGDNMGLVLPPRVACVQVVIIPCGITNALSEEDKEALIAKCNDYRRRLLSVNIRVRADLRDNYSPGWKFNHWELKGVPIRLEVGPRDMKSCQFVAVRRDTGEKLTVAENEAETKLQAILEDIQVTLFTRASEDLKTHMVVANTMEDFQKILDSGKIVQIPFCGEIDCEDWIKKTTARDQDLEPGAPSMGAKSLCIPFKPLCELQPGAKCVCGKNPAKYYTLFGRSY
UniProt Q5BKY9: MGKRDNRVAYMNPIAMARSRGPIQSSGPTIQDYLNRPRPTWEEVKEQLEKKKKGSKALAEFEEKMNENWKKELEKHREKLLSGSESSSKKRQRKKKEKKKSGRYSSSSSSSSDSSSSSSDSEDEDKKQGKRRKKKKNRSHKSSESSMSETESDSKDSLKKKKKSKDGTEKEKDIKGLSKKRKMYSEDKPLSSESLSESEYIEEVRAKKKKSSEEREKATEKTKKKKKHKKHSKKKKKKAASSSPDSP
UniProt P13804: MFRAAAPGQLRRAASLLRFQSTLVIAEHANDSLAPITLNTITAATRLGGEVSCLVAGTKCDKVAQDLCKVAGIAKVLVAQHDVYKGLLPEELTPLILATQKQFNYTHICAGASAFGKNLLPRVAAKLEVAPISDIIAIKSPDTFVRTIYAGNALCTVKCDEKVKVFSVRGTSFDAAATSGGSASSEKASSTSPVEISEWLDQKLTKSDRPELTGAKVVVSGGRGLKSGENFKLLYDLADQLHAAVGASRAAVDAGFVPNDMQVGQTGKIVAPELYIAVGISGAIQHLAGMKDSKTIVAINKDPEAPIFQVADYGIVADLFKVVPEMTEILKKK
UniProt Q15024, whole entry, looked up: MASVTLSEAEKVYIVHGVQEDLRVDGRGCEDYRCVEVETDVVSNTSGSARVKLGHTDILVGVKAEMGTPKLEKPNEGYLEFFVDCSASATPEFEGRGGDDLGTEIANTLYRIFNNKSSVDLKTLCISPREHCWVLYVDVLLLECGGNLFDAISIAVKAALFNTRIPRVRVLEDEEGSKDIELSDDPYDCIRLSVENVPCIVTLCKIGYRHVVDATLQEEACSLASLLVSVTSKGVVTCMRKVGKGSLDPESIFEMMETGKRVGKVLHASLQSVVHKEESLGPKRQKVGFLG
UniProt Q8IUD2: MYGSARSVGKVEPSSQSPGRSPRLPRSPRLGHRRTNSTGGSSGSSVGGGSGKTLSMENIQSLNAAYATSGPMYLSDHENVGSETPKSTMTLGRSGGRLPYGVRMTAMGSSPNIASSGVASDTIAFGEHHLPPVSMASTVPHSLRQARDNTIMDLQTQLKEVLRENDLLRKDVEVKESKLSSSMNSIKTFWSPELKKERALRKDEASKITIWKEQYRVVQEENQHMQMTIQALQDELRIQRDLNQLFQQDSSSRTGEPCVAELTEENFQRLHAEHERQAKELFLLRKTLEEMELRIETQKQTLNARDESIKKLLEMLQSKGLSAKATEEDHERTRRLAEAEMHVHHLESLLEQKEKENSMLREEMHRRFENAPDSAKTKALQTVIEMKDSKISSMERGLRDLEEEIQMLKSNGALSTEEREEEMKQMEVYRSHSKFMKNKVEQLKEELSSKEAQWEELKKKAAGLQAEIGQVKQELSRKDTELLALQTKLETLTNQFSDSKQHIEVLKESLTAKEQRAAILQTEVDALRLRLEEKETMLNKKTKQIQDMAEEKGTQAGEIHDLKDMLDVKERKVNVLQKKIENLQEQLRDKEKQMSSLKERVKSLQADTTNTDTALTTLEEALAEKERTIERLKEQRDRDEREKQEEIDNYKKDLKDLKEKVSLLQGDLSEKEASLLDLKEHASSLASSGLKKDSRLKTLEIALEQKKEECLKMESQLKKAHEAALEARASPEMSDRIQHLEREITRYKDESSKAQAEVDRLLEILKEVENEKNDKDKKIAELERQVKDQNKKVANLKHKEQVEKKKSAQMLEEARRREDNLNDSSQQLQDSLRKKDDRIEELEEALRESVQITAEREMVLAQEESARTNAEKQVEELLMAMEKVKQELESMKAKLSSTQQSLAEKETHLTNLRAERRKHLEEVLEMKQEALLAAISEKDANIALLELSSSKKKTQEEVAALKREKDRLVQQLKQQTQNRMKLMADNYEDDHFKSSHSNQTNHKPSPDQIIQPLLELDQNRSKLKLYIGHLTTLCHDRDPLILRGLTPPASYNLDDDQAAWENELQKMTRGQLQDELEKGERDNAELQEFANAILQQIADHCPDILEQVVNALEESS
UniProt Q9UNN5: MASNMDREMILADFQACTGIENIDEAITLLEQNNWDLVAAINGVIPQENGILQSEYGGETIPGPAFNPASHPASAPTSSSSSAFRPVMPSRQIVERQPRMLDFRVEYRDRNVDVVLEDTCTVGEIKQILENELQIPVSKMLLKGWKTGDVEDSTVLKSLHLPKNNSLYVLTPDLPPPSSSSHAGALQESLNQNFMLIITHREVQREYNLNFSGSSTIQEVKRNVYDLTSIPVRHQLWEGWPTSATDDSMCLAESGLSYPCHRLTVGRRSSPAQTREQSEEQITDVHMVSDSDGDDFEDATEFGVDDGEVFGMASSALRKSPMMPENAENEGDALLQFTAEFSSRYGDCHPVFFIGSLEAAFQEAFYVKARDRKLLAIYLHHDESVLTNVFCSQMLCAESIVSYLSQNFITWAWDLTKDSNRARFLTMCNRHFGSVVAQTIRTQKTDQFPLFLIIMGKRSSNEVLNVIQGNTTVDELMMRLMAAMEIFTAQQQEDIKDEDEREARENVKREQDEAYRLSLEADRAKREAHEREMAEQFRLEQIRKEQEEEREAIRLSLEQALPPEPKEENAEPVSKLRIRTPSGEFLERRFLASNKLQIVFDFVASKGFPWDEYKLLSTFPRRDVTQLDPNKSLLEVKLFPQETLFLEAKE
UniProt Q9BS26: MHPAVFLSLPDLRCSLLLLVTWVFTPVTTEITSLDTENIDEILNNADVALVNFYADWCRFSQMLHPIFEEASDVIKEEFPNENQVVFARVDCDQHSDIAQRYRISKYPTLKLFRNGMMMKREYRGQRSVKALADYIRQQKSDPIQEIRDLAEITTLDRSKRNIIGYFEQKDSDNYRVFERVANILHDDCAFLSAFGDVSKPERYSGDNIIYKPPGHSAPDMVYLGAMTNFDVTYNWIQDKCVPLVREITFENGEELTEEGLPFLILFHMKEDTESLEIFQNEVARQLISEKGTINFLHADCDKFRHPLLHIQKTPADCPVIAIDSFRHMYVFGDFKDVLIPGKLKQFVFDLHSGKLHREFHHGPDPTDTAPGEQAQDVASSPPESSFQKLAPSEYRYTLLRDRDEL
UniProt P28715: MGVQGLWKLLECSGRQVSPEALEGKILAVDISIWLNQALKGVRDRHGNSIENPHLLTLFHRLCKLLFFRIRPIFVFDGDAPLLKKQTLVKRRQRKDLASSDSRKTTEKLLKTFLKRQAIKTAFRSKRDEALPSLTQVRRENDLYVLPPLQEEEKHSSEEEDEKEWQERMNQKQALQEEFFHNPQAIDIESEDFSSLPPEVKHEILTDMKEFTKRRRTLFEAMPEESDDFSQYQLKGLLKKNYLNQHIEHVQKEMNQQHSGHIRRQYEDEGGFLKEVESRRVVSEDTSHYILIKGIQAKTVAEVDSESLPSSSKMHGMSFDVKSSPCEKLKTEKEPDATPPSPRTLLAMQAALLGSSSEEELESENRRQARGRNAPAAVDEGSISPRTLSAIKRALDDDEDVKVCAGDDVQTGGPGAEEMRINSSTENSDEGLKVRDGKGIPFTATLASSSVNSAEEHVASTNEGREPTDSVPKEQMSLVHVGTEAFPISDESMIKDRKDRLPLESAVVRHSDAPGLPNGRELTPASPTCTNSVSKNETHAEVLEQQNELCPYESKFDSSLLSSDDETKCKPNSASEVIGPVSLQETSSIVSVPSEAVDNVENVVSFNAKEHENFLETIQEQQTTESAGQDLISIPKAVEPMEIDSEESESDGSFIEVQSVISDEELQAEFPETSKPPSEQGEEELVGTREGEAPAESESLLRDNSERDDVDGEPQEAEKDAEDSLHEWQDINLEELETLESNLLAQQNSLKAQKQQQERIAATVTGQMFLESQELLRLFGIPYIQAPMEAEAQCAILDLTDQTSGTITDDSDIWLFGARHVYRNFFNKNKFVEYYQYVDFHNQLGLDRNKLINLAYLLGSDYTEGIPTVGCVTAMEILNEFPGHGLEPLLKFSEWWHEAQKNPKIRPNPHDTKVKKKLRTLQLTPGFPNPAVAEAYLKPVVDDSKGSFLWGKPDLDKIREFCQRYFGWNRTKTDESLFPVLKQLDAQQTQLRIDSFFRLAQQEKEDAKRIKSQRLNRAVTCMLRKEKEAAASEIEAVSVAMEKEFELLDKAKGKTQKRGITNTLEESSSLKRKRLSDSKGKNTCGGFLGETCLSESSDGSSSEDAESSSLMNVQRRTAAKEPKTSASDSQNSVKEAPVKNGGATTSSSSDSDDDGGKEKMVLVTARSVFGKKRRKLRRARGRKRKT
UniProt Q969X5: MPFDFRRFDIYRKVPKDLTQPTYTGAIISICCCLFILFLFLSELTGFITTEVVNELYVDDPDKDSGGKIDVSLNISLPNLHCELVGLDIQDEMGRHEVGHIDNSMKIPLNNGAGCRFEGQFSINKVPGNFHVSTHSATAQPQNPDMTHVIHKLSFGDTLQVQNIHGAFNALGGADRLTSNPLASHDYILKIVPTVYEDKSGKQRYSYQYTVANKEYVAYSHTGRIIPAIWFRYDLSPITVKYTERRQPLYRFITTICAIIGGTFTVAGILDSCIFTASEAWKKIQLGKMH

Tests used:
Assay in all cases: log2 fold change, soluble protein after heating vs DMSO (PISA); higher = thermal stabilisation; K562 cells, 10 uM, 30 min; active = over 0.2 and 3.5 SD of the protein, either way, in both replicates (recomputed)
[1] = compound: CS(=O)(=O)c1ccc(-c2cnc(N)c(C(=O)Nc3ccccc3)n2)cc1
Method in brief: (§1)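 For each measurement, 10 μM compound was applied for 30 min to K562 cells at 2×10^6 cells/mL. Aliquots were heated for 3 min across 48°C-58°C, pooled, and extracted in PBS with 0.5% NP-40 at 4°C; the supernatant after 21,000xg for 90 min was soluble protein. This was quantified by TMTpro 16plex LC-MS/MS with channel sums equalised, and thermal stability was reported relative to control samples from duplicates, on a log2 fold-change scale.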

[2] = compound: C[C@@H](Oc1cc(-c2cnn(C3CCNCC3)c2)cnc1N)c1c(Cl)ccc(F)c1Cl [crizotinib]
Method in brief: as §1

[3] = compound: C[C@@H]1COCCN1C2=NC(=NC(=C2)C3(CC3)S(=O)(=O)C)C4=C5C=CNC5=CC=C4
Method in brief: as §1

[4] = compound: C[C@H](C1=CC=C(C=C1)C(=O)NC2=C3C=CNC3=NC=C2)N
Method in brief: as §1

[5] = compound: C[C@H](Nc1ncnc2nc[nH]c12)c1cc2cccc(Cl)c2c(=O)n1-c1ccccc1 [duvelisib]
Method in brief: as §1

[6] = compound: Cc1cc(Nc2cc(CN3CCOCC3)c3nc(C)c(Cc4ccc(Cl)cc4F)n3n2)n[nH]1 [gandotinib]
Method in brief: as §1

[7] = compound: Cc1cc(Nc2cc(N3CCN(C)CC3)nc(Sc3ccc(NC(=O)C4CC4)cc3)n2)n[nH]1 [tozasertib]
Method in brief: as §1

[8] = compound: Cc1cc(SCc2sc(-c3ccc(C(F)(F)F)cc3)nc2C)ccc1OCC(=O)O
Method in brief: as §1

[9] = compound: Cc1ccc(-n2nc(C(C)(C)C)cc2NC(=O)Nc2ccc(OCCN3CCOCC3)c3ccccc23)cc1 [doramapimod]
Method in brief: as §1

[10] = compound: Cc1ccc(C(=O)N(CCCN)[C@@H](c2nc3cc(Cl)ccc3c(=O)n2Cc2ccccc2)C(C)C)cc1 [ispinesib]
Method in brief: as §1

[11] = compound: Cc1ccc(NC(=O)c2ccc(CN3CC[C@H](N(C)C)C3)c(C(F)(F)F)c2)cc1Nc1nccc(-c2cncnc2)n1 [bafetinib]
Method in brief: as §1

[12] = compound: Cc1cccc(CC(=O)N2CCc3c2ccc(-c2cn(C)c4ncnc(N)c24)c3F)n1
Method in brief: as §1

[13] = compound: Cc1cn(-c2cc(NC(=O)c3ccc(C)c(Nc4nccc(-c5cccnc5)n4)c3)cc(C(F)(F)F)c2)cn1 [nilotinib]
Method in brief: as §1

[14] = compound: Cc1nc(Nc2n[nH]c3c2CN(C(=O)N[C@H](CN(C)C)c2ccccc2)C3(C)C)c2sccc2n1
Method in brief: as §1

[15] = compound: Cc1nc(Nc2ncc(C(=O)Nc3c(C)cccc3Cl)s2)cc(N2CCN(CCO)CC2)n1 [dasatinib]
Method in brief: as §1

[16] = compound: Cc1ncc(-c2ccnc(Nc3ccc(S(C)(=O)=O)cc3)n2)n1C(C)C
Method in brief: as §1

[17] = compound: Cn1cc(-c2ccc3c(c2)CCN3C(=O)Cc2cccc(C(F)(F)F)c2)c2c(N)ncnc21
Method in brief: as §1

[18] = compound: Cn1cc(-c2ccc3nnc(C(F)(F)c4ccc5ncccc5c4)n3n2)cn1
Method in brief: as §1

[19] = compound: Cn1cncc1[C@@](N)(c1ccc(Cl)cc1)c1ccc2c(c1)c(-c1cccc(Cl)c1)cc(=O)n2C [tipifarnib]
Method in brief: as §1

[20] = compound: FC(F)(F)c1ccc(/C=C/c2nc(COc3ccc(CCCCn4ccnn4)cc3)co2)cc1 [mubritinib]
Method in brief: as §1

Measured: log2 fold change

EXOSC1 (UniProt Q9Y3B2)
inactive: [1] -0.022 | [2] 0.008 | [3] -0.092 | [4] 0.169 | [5] -0.062 | [6] 0.029 | [7] -0.013 | [8] 0.109 | [9] 0.043 | [10] -0.147 | [11] 0.15 | [12] -0.017 | [13] -0.05 | [14] -0.008 | [15] -0.018 | [16] 0.012 | [17] -0.084 | [18] -0.086 | [19] 0.007 | [20] -0.056

EXOSC4 (UniProt Q9NPD3)
inactive: [1] -0.026 | [2] 0.01 | [3] -0.004 | [4] -0.004 | [5] 0.002 | [6] -0.016 | [7] -0.016 | [8] 0.003 | [9] -0.011 | [10] 0.074 | [11] 0.002 | [12] 0.043 | [13] 0.008 | [14] 0 | [15] 0.009 | [16] -0.005 | [17] 0.001 | [18] -0.019 | [19] -0.029 | [20] 0.014

FABP5 (UniProt Q01469)
inactive: [1] 0 | [2] 0.041 | [3] 0.037 | [4] 0.06 | [5] -0.054 | [6] 0.142 | [7] 0.054 | [8] -0.009 | [9] -0.092 | [10] 0.169 | [11] -0.085 | [12] -0.019 | [13] -0.011 | [14] -0.007 | [15] 0.025 | [16] -0.009 | [17] 0.027 | [18] -0.009 | [19] -0.042 | [20] 0.029

ERVK3-1, A0A0U1RQV1
inactive: [1] 0.013 | [2] 0.112 | [3] -0.043 | [4] -0.122 | [5] 0.107 | [6] 0.118 | [7] 0.072 | [8] -0.039 | [9] 0.037 | [10] 0.238 | [11] -0.058 | [12] -0.078 | [13] 0.056 | [14] 0.006 | [15] 0.075 | [16] -0.058 | [17] 0.019 | [18] 0.247 | [19] 0.092 | [20] 0.014

EPRS (UniProt P07814)
inactive: [1] 0.069 | [2] -0.076 | [3] -0.319 | [4] 0.401 | [5] -0.163 | [6] 0.141 | [7] 0.025 | [8] 0.09 | [9] 0.257 | [10] -0.255 | [11] 0.108 | [12] 0.012 | [13] -0.079 | [14] 0.007 | [15] 0.066 | [16] 0.035 | [17] -0.24 | [18] -0.176 | [19] 0.042 | [20] -0.119

FAM133B (UniProt Q5BKY9)
inactive: [1] 0.014 | [2] 0.014 | [3] -0.12 | [4] -0.037 | [5] -0.014 | [6] 0.031 | [7] 0.007 | [8] 0.017 | [9] -0.049 | [10] 0.005 | [11] -0.075 | [12] 0.007 | [13] -0.079 | [14] -0.048 | [15] 0.004 | [16] -0.018 | [17] -0.037 | [18] -0.022 | [19] 0.069 | [20] -0.044

ETFA (UniProt P13804)
inactive: [1] 0.023 | [2] 0.021 | [3] 0.114 | [4] -0.069 | [5] 0.02 | [6] -0.055 | [7] -0.018 | [8] -0.012 | [9] -0.03 | [10] 0.047 | [11] -0.035 | [12] 0.006 | [13] 0.019 | [14] 0.008 | [15] -0.026 | [16] 0.011 | [17] 0.043 | [18] 0.048 | [19] -0.022 | [20] 0.014

EXOSC7 (UniProt Q15024)
inactive: [1] -0.021 | [2] 0.073 | [3] -0.008 | [4] 0.033 | [5] 0.015 | [6] 0.05 | [7] -0.023 | [8] -0.075 | [9] -0.013 | [10] 0.012 | [11] -0.034 | [12] -0.052 | [13] -0.004 | [14] 0.055 | [15] 0.037 | [16] -0.01 | [17] -0.04 | [18] 0.049 | [19] 0.015 | [20] -0.003

ERC1 (UniProt Q8IUD2)
inactive: [1] 0.023 | [2] -0.119 | [3] 0.019 | [4] -0.001 | [5] 0.099 | [6] -0.216 | [7] -0.005 | [8] -0.103 | [9] 0.064 | [10] -0.148 | [11] -0.088 | [12] 0.069 | [13] 0.102 | [14] -0.02 | [15] -0.028 | [16] -0.094 | [17] 0.172 | [18] 0.11 | [19] -0.035 | [20] 0.189

FAF1 (UniProt Q9UNN5)
inactive: [1] -0.004 | [2] 0.053 | [3] 0.05 | [4] -0.151 | [5] -0.008 | [6] -0.045 | [7] 0.038 | [8] -0.004 | [9] -0.041 | [10] 0.078 | [11] -0.065 | [12] 0.013 | [13] -0.003 | [14] -0.034 | [15] 0.044 | [16] -0.007 | [17] -0.001 | [18] 0.005 | [19] -0.001 | [20] 0.041

EXTL3 (UniProt O43909)
inactive: [1] 0.16 | [2] 0.006 | [3] 0.168 | [4] 0.16 | [5] -0.126 | [6] -0.123 | [7] 0.059 | [8] -0.051 | [9] 0.008 | [10] -0.06 | [11] 0.063 | [12] -0.011 | [13] -0.177 | [14] 0.09 | [15] -0.176 | [16] -0.164 | [17] 0.086 | [18] 0.001 | [19] -0.025 | [20] -0.048

ERP44 (UniProt Q9BS26)
inactive: [1] 0.012 | [2] 0.064 | [3] -0.005 | [4] 0.02 | [5] 0.003 | [6] 0.054 | [7] 0.007 | [8] -0.001 | [9] 0.011 | [10] 0.024 | [11] -0.03 | [12] 0.004 | [13] -0.031 | [14] 0.013 | [15] 0.066 | [16] -0.036 | [17] -0.018 | [18] 0.019 | [19] 0.071 | [20] -0.025

ERCC5 (UniProt P28715)
inactive: [1] -0.033 | [2] -0.057 | [3] -0.005 | [4] 0.045 | [5] -0.025 | [6] -0.179 | [7] -0.212 | [8] 0.073 | [9] 0.056 | [10] 0.041 | [11] -0.116 | [12] 0.025 | [13] 0.043 | [14] -0.099 | [15] -0.024 | [16] -0.062 | [17] 0 | [18] -0.008 | [19] 0.082 | [20] 0.109

F2 (UniProt P00734)
inactive: [1] -0.099 | [2] 0.081 | [3] 0.135 | [4] 0.11 | [5] 0.021 | [6] -0.128 | [7] -0.108 | [8] 0.086 | [9] 0.011 | [10] -0.02 | [11] -0.148 | [12] 0.087 | [13] 0.046 | [14] -0.036 | [15] 0.016 | [16] 0.171 | [17] 0.304 | [18] 0.206 | [19] 0.138 | [20] -0.122

FAM20B (UniProt O75063)
inactive: [1] -0.059 | [2] 0.09 | [3] 0.004 | [4] -0.049 | [5] -0.025 | [6] -0.086 | [7] -0.003 | [8] 0.006 | [9] 0.032 | [10] -0.027 | [11] -0.01 | [12] 0.041 | [13] -0.131 | [14] -0.078 | [15] 0.008 | [16] -0.07 | [17] 0.044 | [18] -0.015 | [19] 0.057 | [20] 0.006

ERGIC1 (UniProt Q969X5)
inactive: [1] 0.015 | [2] 0.03 | [3] -0.028 | [4] -0.004 | [5] 0.009 | [6] 0.003 | [7] 0.017 | [8] 0.012 | [9] -0.023 | [10] -0.033 | [11] -0.086 | [12] -0.03 | [13] 0.021 | [14] -0.011 | [15] 0.008 | [16] 0.003 | [17] 0.049 | [18] 0.022 | [19] -0.008 | [20] 0.034
